This passage reports A450 results from patent US20150185241A1, “Tilidine Immunodetection” (Randox Laboratories Limited, priority 2013, published 2015).

In data set [1] the test system is tilidine-specific antibody raised from Immunogen-II. As to the kind of experiment: Competitive ELISA (Example 8): different Ig fraction of antiserum raised to Immunogen II, hapten-HRP conjugate of Example 6 as detecting agent. The format is binding. The following applies: absorbance at 450 nm. The protocol:
The wells of an enhanced binding 96 well polystyrene microtitre plate were coated with a different Ig fraction (to that exemplified in Example 7) of the antiserum raised to Immunogen II (N-(carboxypropyl)nortilidine-BTG—example 5), diluted in 10 mMTris, pH 8.5 (125 μl/well). The appropriate antibody coating dilution was determined using standard ELISA checkerboard techniques. The plate was incubated for 2 hours at 37° C., washed 4 times over 10 minutes with Tris buffered saline, containing Tween 20 (TBST) and tapped dry. Standard solutions of tilidine hydrochloride (a mixture of the two trans isomers—the 1R, 2S and the 1S, 2R trans isomers) and bisnortilidine hydrochloride (a mixture of the two trans isomers—the 1R, 2S and the 1S, 2R trans isomers) were prepared in TBST at 0, 0.313 ng/ml, 0.625 ng/ml, 1.25 ng/ml, 2.5 ng/ml, 5 ng/ml, 10 ng/ml and 20 ng/ml and 50 μl of each was added to the appropriate wells. 75 μl of conjugate of example 6 (hapten-HRP), diluted in Tris buffer (pH7.2) containing EDTA, D-mannitol, sucrose, thimerosal and BSA was added to each of the wells. The appropriate dilution of conjugate was also determined using standard ELISA checkerboard techniques. The plate was incubated at 25° C. for 1 hour. Excess unbound conjugate was removed by washing 6 times over a 10-15 minute period with TBST. 125 μl of tetramethylbenzidine (TMB) substrate solution was added to each well of the plate that was then incubated for 20 minutes in the dark at room temperature. The reaction was terminated by the addition of 125 μl of 0.2M H2SO4 to each well. The absorbance was then measured at 450 nm using a microtitre plate reader.
Background: In an ELISA, binding on a coated surface is turned into a signal by an enzyme label.

Data set [2] shares this test system. As to the kind of experiment: Competitive ELISA (Example 7): Ig fraction of antiserum raised to Immunogen II, hapten-HRP conjugate of Example 6 as detecting agent. The following applies: absorbance at 450 nm. The format is binding. The protocol:
The wells of an enhanced binding 96 well polystyrene microtitre plate were coated with the Ig fraction of the antiserum raised to Immunogen II (N-(carboxypropyl)nortilidine-BTG—example 5), diluted in 10 mMTris, pH 8.5 (125 μl/well). The appropriate antibody coating dilution was determined using standard ELISA checkerboard techniques. The plate was incubated for 2 hours at 37° C., washed 4 times over 10 minutes with Tris buffered saline, containing Tween 20 (TBST) and tapped dry. Standard solutions of tilidine hydrochloride (a mixture of the two trans isomers—the 1R, 2S and the 1S, 2R trans isomers) and nortilidine hydrochloride (a mixture of the two trans isomers—the 1R, 2S and the 1S, 2R trans isomers) were prepared in TBST at 0, 0.625 ng/ml, 1.25 ng/ml, 2.5 ng/ml, 5 ng/ml, 10 ng/ml, 20 ng/ml and 40 ng/ml and 50 μl of each was added to the appropriate wells. 75 μl of conjugate of example 6 (hapten-HRP), diluted in Tris buffer (pH7.2) containing EDTA, D-mannitol, sucrose, thimerosal and BSA was added to each of the wells. The appropriate dilution of conjugate was also determined using standard ELISA checkerboard techniques. The plate was incubated at 25° C. for 1 hour. Excess unbound conjugate was removed by washing 6 times over a 10-15 minute period with TBST. 125 μl of tetramethylbenzidine (TMB) substrate solution was added to each well of the plate that was then incubated for 20 minutes in the dark at room temperature. The reaction was terminated by the addition of 125 μl of 0.2M H2SO4 to each well. The absorbance was then measured at 450 nm using a microtitre plate reader.

Structures are written as SMILES. Where a name gives a salt, the structure may show the parent alone.

With `CCOC(=O)[C@]1(c2ccccc2)CCC=C[C@H]1N(C)C` (racemic) [Tilidine HCl, (±)-trans-ethyl 2-(N,N-dimethylamino)-1-phenylcyclohex-3-enylcarboxylate], the A450 in data set [1] (standard 0.313 ng/ml) was 0.971; in data set [1] (standard 0.625 ng/ml), 0.873; in data set [1] (standard 1.250 ng/ml) it was 0.724; in data set [1] (standard 2.500 ng/ml) it was 0.568; in data set [1] (standard 5.000 ng/ml) it was 0.422; in data set [1] (standard 10.000 ng/ml), 0.297. Moreover, the A450 is given as 0.194 in data set [1] (standard 20.000 ng/ml); 0.989 in data set [2] (standard 0.625 ng/ml); 0.861 in data set [2] (standard 1.250 ng/ml); 0.714 in data set [2] (standard 2.500 ng/ml); 0.572 in data set [2] (standard 5.000 ng/ml); 0.444 in data set [2] (standard 10.000 ng/ml). In addition, the A450 was determined as 0.319 in data set [2] (standard 20.000 ng/ml) and 0.212 in data set [2] (standard 40.000 ng/ml).
